Results reported in patent publication US10662182B2, “Microbiocidal thiazole derivatives” (SYNGENTA PARTICIPATIONS AG, priority 2016, dated 2020).
Some entries share one result that the patent states for a list of compounds.

What was measured:
[1] = tested on: Mycosphaerella arachidis (Cercospora arachidicola); assay: Mycosphaerella arachidis / liquid culture (early leaf spot); type: cell-based; conditions: 200 ppm in the formulation, inhibition of growth determined photometrically, compared to untreated checks
Method: (§1) Mycosphaerella arachidis (Cercospora arachidicola)/Liquid Culture (Early Leaf Spot) Conidia of the fungus from cryogenic storage are directly mixed into nutrient broth (PDB potato dextrose broth). After placing a (DMSO) solution of test compound into a microtiter plate (96-well format), the nutrient broth containing the fungal spores is added. The test plates are incubated at 24° C. and the inhibition of growth is determined photometrically 4-5 days after application.

[2] = tested on: Mycosphaerella raminicola (Septoria tritici); assay: Mycosphaerella graminicola / liquid culture (Septoria blotch); type: cell-based; conditions: 200 ppm in the formulation, inhibition of growth determined photometrically, compared to untreated checks
Method: as §1, with “raminicola (Septoria tritici)/Liquid” for “arachidis (Cercospora arachidicola)/Liquid”, “(Septoria blotch)” for “(Early Leaf Spot)”, “4 to 5” for “4-5”

Pyrenophora teres = Pyrenophora teres / barley / leaf disc preventative (net blotch); type: in vivo; conditions: 200 ppm of the formulation; barley leaf segments cv. Hasso; compared to untreated checks
Method: Pyrenophora teres/Barley/Leaf Disc Preventative (Net Blotch) Barley leaf segments cv. Hasso are placed on agar in a multiwell plate (24-well format) and sprayed with the test compound formulated with DMSO and Tween20 and diluted in water. The leaf segments are inoculated with a spore suspension of the fungus 2 days after application. The inoculated leaf segments are incubated at 20° C. and 65% rh under a light regime of 12 h light/12 h darkness in a climate cabinet and the activity of a compound is assessed as disease control compared to untreated when an appropriate level of disease damage appears in untreated check leaf segments (5 to 7 days after application).

[3] = tested on: Puccinia recondita f. Sp. Tritici; assay: Puccinia recondita f. sp. tritici / wheat / leaf disc preventative (brown rust); type: in vivo; conditions: 200 ppm in the formulation; wheat leaf segments cv. Kanzler; compared to untreated checks
[4] = tested on: Glomerella lacenarium (Colletotrichum lacenarium); assay: Glomerella lagenarium / liquid culture (anthracnose); type: cell-based; conditions: 200 ppm in the formulation, inhibition of growth measured photometrically, compared to untreated checks
Method: as §1, with “Glomerella lacenarium (Colletotrichum lacenarium)/Liquid” for “Mycosphaerella arachidis (Cercospora arachidicola)/Liquid”, “(Anthracnose)” for “(Early Leaf Spot)”, “measured” for “determined”, “3 to 4” for “4-5”

[5] = tested on: Monocraphella nivalis (Microdochium nivale); assay: Monographella nivalis / liquid culture (foot rot cereals); type: cell-based; conditions: 200 ppm in the formulation, inhibition of growth determined photometrically, compared to untreated checks
Method: as §1, with “Monocraphella nivalis (Microdochium nivale)/Liquid” for “Mycosphaerella arachidis (Cercospora arachidicola)/Liquid”, “(Foot Rot Cereals)” for “(Early Leaf Spot)”

[6] = tested on: Blumeria graminis f. Sp. Tritici (Erysiphe graminis f. Sp. Tritici); assay: Blumeria graminis f. sp. tritici / wheat / leaf disc preventative (powdery mildew on wheat); type: in vivo; conditions: 200 ppm in the formulation; wheat leaf segments cv. Kanzler; compared to untreated checks
Source text: Blumeria graminis f. Sp. Tritici (Erysiphe graminis f. Sp. Tritici)/Wheat/Leaf Disc Preventative (Powdery Mildew on Wheat) Wheat leaf segments cv. Kanzler are placed on agar in a multiwell plate (24-well format) and sprayed with the test compound formulated with DMSO and Tween20 and diluted in water. The leaf disks are inoculated by shaking powdery mildew infected plants above the test plates 1 day after application.

[7] = tested on: Magnaporthe risea (Pyricularia oryzae); type: in vivo; conditions: 200 ppm in the formulation; rice leaf segments cv. Ballila; compared to untreated checks
[8] = tested on: Botrvotinia fuckeliana (Botrvtis cinerea); assay: Botryotinia fuckeliana / liquid culture (gray mould); type: cell-based; conditions: 200 ppm in the formulation, inhibition of growth determined photometrically, compared to untreated checks
Method: as §1, with “Botrvotinia fuckeliana (Botrvtis cinerea)/Liquid” for “Mycosphaerella arachidis (Cercospora arachidicola)/Liquid”, “(Gray Mould)” for “(Early Leaf Spot)”, “(Vogels” for “(PDB potato dextrose”, “3-4” for “4-5”

Gaeumannomyces graminis = Gaeumannomyces graminis / liquid culture (take-all of cereals); type: cell-based; conditions: 200 ppm in the formulation, inhibition of growth determined photometrically, compared to untreated control
Method: Gaeumannomyces graminis/Liquid Culture (Take-All of Cereals) Mycelial fragments of the fungus from cryogenic storage were directly mixed into nutrient broth (PDB potato dextrose broth). After placing a (DMSO) solution of test compound into a microtiter plate (96-well format), the nutrient broth containing the fungal spores is added. The test plates are incubated at 24° C. and the inhibition of growth is determined photometrically 4-5 days after application.

Measured: disease control

Cc1sc(Nc2cc(F)cc(F)c2)nc1C(=O)NCC1(C)CC1 [I.ap.3]
not listed: [8] | Gaeumannomyces graminis
at least 80%: all other assays above

Cc1sc(Nc2cc(F)cc(F)c2)nc1C(=O)NCC1(C)COC1 [I.ay.3]
at least 80%: [8] | Pyrenophora teres | [4] | [5] | [6] | [7]

Cc1sc(Nc2cc(F)cc(F)c2)nc1C(=O)NC1CC2(CCCC2)C1 [I.t.3]
not listed: [1] | [6] | [8]
at least 80%: all other assays above

Cc1sc(Nc2cc(F)nc(F)c2)nc1C(=O)NCC1(C)CCOCC1 [I.ar.43]
at least 80%: [2] | [3] | [6] | [7]

Cc1sc(Nc2cc(F)cc(F)c2)nc1C(=O)NC(Cc1ccccc1)C(C)(C)C (stereo not drawn) [I.k.3]
at least 80%: Gaeumannomyces graminis | [2] | [4] | [5] | [7]

Cc1sc(Nc2cc(F)nc(F)c2)nc1C(=O)NCC(C)(C)C [I.ao.43]
not listed: [8] | Gaeumannomyces graminis
at least 80%: all other assays above

Cc1sc(Nc2cc(F)cc(F)c2)nc1C(=O)NC1(C2CCCCC2)CC1 [I.p.3]
not listed: Pyrenophora teres | [6] | [8]
at least 80%: all other assays above

Cc1sc(Nc2cc(F)cc(F)c2)nc1C(=O)NC(C)c1ccccc1 (stereo not drawn) [I.f.3]
not listed: Pyrenophora teres
at least 80%: all other assays above

Cc1sc(Nc2cc(F)nc(F)c2)nc1C(=O)NCC1(C)CC1 [I.ap.43]
at least 80%: [1] | [2] | [3] | [4] | [6] | [7]

Cc1sc(Nc2cc(F)cc(F)c2)nc1C(=O)NCC1(CC2CC2)CC1 [I.ax.3]
not listed: Pyrenophora teres | [6] | Gaeumannomyces graminis
at least 80%: all other assays above

Cc1sc(Nc2cc(F)nc(F)c2)nc1C(=O)NCC1(CC2CC2)CC1 [I.ax.43]
not listed: Pyrenophora teres | Gaeumannomyces graminis
at least 80%: all other assays above

Cc1sc(Nc2cc(F)nc(F)c2)nc1C(=O)NC1(C2CC2)CC1 [I.au.43]
at least 80%: [2] | [3] | [4] | [5] | [6] | [7]

Cc1sc(Nc2cc(F)cc(F)c2)nc1C(=O)NCC1(C)CCCC1 [I.aq.3]
not listed: [8] | Gaeumannomyces graminis
at least 80%: all other assays above

Cc1sc(Nc2cc(F)cc(F)c2)nc1C(=O)NCc1cc(F)c(F)cc1F [I.b.3]
not listed: [6] | [8]
at least 80%: all other assays above

Cc1sc(Nc2cc(F)nc(F)c2)nc1C(=O)NCC1(C)CCC1 [I.at.43]
at least 80%: [1] | [2] | [3] | [4] | [6] | [7]

Cc1sc(Nc2cc(F)nc(F)c2)nc1C(=O)NC(C)(C#N)C1CC1 (stereo not drawn) [I.av.43]
at least 80%: [2] | [3] | [4] | [5] | [6] | [7]

Cc1sc(Nc2cc(F)nc(F)c2)nc1C(=O)NC(C)c1ccccn1 (stereo not drawn) [I.ba.43]
at least 80%: [3]

Cc1sc(Nc2cc(F)cc(F)c2)nc1C(=O)NC1C2CCOC2C12CCC2 (stereo not drawn) [I.ab.3]
not listed: [8]
at least 80%: all other assays above

C#CC(C)(NC(=O)c1nc(Nc2cc(F)cc(F)c2)sc1C)C(C)C (stereo not drawn) [I.m.3]
not listed: Pyrenophora teres | [8]
at least 80%: all other assays above

CCOC(=O)C1(CNC(=O)c2nc(Nc3cc(F)cc(F)c3)sc2C)CC1 [I.aw.3]
at least 80%: [2] | [3] | [4] | [5] | [7]
